Laboratory results as given in the supplement of paper PMC10849652.
The other results are listed elsewhere or left out.

The chains behind the UniProt entries cited, without tags or fusion partners. Where a name states a change or a piece, a line headed by the entry shows the natural chain unless it says otherwise.
UniProt Q8IXK2: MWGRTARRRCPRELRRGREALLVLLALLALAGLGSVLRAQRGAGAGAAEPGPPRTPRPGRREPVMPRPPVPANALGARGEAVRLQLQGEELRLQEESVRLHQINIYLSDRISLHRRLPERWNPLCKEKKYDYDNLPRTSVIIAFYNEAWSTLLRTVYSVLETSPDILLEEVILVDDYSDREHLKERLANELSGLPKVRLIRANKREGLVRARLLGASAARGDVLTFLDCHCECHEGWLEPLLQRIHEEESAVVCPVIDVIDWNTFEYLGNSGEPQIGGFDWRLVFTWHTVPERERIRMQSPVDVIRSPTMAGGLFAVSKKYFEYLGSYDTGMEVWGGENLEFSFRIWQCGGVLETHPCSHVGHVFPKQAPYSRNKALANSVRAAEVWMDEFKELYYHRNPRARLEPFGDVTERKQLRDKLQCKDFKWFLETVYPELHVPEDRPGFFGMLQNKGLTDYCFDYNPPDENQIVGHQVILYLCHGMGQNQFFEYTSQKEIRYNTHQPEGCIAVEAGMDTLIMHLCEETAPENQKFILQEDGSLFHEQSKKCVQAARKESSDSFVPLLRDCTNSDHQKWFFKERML
UniProt P02794, whole entry, looked up: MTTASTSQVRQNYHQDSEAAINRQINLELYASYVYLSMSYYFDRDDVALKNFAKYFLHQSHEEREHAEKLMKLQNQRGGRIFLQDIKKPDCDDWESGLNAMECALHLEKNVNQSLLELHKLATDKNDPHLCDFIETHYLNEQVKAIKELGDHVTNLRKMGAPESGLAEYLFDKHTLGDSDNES
UniProt P07902: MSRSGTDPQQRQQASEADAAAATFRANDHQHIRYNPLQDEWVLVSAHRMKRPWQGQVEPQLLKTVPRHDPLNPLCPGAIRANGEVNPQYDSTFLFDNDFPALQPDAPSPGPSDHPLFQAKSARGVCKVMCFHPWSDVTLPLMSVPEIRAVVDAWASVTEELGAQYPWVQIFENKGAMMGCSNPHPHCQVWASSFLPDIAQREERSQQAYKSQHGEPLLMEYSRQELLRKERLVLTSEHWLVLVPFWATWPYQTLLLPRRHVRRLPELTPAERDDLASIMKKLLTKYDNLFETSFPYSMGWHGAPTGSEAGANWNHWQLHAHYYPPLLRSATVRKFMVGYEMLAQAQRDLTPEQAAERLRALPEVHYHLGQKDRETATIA
UniProt P30047: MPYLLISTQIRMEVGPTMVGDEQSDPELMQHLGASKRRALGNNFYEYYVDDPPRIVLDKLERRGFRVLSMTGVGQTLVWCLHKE
UniProt Q9UN86: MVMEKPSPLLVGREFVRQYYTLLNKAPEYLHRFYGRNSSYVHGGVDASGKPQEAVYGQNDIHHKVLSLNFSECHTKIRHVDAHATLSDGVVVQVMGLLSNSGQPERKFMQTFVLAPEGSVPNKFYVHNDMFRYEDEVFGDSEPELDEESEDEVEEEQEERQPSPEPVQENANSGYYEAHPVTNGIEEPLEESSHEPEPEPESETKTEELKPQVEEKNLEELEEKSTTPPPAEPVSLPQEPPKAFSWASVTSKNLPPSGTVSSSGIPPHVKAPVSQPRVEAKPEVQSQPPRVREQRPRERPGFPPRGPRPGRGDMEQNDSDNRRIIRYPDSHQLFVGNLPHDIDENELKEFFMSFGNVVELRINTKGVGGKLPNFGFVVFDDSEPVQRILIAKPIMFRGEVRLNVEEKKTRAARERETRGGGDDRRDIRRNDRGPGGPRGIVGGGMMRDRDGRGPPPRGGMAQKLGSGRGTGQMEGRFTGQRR
UniProt Q9UJY5: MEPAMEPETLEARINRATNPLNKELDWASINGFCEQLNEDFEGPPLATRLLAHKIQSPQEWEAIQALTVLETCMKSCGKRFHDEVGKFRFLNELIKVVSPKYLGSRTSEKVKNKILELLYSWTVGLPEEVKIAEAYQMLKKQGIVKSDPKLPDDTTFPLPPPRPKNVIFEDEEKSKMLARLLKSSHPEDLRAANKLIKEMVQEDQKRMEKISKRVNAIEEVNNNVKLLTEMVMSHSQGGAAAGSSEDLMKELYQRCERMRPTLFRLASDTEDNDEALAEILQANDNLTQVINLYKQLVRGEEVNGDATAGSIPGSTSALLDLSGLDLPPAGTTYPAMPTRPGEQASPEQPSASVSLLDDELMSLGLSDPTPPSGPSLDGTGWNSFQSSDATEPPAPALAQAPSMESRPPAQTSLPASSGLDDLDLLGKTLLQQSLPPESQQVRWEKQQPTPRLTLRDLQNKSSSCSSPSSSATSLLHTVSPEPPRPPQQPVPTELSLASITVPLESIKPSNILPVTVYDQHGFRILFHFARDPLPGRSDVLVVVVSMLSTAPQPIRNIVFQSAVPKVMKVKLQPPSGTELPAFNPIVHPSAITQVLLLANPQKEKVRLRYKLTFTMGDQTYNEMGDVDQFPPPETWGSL
UniProt Q9C0B1, whole entry, looked up: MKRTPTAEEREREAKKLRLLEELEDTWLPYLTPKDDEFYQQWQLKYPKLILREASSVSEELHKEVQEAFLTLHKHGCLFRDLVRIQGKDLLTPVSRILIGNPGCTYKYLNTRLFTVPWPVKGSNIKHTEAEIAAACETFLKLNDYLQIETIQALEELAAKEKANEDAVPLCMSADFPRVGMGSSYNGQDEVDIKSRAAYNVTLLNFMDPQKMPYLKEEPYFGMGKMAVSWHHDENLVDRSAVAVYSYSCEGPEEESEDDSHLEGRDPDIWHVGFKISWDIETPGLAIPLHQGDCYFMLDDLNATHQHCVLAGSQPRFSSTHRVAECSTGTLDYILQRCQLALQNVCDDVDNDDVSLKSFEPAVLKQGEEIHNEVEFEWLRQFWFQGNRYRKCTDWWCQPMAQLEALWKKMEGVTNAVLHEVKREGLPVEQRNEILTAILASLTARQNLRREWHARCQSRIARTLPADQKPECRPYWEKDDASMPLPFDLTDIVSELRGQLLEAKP
UniProt P35637: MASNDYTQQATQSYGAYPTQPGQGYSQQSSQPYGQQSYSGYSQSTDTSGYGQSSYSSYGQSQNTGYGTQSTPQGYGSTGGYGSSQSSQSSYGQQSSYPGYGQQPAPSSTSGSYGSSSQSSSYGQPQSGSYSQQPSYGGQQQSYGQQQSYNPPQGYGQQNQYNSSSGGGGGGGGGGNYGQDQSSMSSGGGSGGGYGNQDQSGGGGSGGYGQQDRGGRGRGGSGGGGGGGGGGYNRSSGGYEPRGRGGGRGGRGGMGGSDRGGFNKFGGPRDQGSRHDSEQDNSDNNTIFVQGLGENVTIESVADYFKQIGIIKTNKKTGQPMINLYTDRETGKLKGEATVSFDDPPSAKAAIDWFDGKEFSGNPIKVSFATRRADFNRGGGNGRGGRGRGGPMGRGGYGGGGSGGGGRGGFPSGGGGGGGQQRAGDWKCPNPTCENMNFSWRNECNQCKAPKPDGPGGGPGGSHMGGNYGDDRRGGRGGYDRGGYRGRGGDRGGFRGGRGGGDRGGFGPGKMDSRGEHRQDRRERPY
UniProt Q01415: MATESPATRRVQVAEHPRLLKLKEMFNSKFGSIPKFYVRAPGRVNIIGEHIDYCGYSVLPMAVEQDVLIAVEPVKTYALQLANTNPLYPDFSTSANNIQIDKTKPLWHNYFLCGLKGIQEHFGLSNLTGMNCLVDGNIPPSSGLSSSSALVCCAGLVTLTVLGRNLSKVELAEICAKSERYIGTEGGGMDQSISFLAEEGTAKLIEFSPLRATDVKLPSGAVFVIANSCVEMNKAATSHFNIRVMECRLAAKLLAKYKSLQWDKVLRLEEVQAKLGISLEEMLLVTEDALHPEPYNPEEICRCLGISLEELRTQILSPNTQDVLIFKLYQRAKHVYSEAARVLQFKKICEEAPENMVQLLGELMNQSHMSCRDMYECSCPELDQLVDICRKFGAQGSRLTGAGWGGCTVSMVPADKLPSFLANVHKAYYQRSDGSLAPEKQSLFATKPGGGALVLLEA
UniProt Q92820: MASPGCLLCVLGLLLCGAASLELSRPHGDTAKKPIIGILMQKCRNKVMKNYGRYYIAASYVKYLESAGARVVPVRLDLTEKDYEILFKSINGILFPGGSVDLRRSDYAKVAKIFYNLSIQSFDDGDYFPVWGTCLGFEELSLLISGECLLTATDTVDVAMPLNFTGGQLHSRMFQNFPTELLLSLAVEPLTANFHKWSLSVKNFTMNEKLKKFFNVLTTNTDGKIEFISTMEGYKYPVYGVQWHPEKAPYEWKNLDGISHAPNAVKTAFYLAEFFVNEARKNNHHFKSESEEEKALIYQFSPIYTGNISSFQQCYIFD
UniProt Q86SF2: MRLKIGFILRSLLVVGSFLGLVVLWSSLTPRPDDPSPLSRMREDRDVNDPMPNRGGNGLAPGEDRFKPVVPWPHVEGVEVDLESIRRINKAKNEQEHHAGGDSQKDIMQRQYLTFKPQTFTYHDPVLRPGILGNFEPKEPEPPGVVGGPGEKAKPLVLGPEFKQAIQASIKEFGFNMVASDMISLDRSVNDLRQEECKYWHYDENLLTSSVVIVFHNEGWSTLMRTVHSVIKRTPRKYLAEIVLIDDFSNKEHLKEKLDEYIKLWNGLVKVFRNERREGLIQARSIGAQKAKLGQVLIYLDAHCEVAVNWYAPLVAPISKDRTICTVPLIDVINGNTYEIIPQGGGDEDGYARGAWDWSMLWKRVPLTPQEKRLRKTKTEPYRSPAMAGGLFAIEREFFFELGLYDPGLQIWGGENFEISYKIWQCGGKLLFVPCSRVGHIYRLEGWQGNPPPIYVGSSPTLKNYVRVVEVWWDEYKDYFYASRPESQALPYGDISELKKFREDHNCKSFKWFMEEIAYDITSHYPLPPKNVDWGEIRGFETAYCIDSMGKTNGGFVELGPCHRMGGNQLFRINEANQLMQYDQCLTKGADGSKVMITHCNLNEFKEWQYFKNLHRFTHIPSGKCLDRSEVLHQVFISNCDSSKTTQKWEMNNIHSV
UniProt Q96C23: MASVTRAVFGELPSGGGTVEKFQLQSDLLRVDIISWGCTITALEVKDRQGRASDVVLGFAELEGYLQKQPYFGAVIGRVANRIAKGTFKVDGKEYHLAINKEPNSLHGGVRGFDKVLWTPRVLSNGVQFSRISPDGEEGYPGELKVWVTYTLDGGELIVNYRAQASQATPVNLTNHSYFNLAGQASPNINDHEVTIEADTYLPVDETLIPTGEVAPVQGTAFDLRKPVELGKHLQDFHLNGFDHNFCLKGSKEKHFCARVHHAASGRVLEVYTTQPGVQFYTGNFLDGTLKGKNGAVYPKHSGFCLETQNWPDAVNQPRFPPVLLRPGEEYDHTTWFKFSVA
UniProt Q9H3K2: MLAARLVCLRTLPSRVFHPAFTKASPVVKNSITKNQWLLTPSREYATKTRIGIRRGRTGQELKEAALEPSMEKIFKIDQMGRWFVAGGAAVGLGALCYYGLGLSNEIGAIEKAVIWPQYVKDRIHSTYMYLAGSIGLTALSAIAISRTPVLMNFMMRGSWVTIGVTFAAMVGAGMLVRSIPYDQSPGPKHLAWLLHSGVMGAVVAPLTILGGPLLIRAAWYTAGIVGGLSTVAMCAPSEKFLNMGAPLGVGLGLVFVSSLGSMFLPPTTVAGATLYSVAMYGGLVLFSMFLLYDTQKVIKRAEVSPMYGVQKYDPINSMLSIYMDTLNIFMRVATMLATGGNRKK
UniProt P04406: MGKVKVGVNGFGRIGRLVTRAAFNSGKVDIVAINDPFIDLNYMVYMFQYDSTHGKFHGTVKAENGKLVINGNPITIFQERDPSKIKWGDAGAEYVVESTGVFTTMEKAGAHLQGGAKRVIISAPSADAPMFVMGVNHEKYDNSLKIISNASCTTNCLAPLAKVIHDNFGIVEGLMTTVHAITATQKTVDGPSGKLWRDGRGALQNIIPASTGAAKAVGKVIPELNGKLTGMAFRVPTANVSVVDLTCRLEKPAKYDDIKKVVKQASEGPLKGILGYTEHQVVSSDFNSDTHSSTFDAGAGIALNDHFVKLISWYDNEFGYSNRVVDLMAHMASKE
UniProt P48506: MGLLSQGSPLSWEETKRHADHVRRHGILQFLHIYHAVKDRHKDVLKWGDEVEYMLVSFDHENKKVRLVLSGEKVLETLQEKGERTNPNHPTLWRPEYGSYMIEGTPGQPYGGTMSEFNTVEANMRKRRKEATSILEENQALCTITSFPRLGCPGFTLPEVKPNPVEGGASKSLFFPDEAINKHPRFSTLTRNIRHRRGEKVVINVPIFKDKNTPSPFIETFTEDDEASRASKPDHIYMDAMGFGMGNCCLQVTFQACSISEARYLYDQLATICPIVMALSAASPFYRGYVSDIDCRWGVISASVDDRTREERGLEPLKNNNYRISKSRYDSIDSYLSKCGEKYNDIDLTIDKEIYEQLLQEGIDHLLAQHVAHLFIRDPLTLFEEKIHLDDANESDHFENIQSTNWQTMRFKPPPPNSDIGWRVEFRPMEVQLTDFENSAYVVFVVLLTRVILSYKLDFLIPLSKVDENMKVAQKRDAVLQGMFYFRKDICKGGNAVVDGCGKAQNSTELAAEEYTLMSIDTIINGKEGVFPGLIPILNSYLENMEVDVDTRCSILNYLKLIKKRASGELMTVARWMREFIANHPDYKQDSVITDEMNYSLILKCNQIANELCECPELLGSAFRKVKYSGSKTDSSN

Legend:
Assay in all cases: log2 fold change, soluble protein after heating vs DMSO (PISA); higher = thermal stabilisation; K562 cells, 10 uM, 30 min; active = over 0.2 and 3.5 SD of the protein, either way, in both replicates (recomputed)
[1] = compound: CS(=O)(=O)c1ccc(-c2cnc(N)c(C(=O)Nc3ccccc3)n2)cc1
Method in brief: (§1)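 K562 cells at 2×10^6 cells/mL were treated for 30 min with 10 μM compound, and aliquots were heated for 3 min over 48°C-58°C before pooling. Extraction used PBS with 0.5% NP-40 at 4°C, and soluble protein was the supernatant after 21,000xg for 90 min, measured by TMTpro 16plex LC-MS/MS with channel sums equalised. Thermal stability values, relative to control samples and from duplicates, are log2 fold changes.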

crizotinib = compound: C[C@@H](Oc1cc(-c2cnn(C3CCNCC3)c2)cnc1N)c1c(Cl)ccc(F)c1Cl [crizotinib]
Method in brief: as §1

[2] = compound: C[C@@H]1COCCN1C2=NC(=NC(=C2)C3(CC3)S(=O)(=O)C)C4=C5C=CNC5=CC=C4
Method in brief: as §1

[3] = compound: C[C@H](C1=CC=C(C=C1)C(=O)NC2=C3C=CNC3=NC=C2)N
Method in brief: as §1

duvelisib = compound: C[C@H](Nc1ncnc2nc[nH]c12)c1cc2cccc(Cl)c2c(=O)n1-c1ccccc1 [duvelisib]
Method in brief: as §1

gandotinib = compound: Cc1cc(Nc2cc(CN3CCOCC3)c3nc(C)c(Cc4ccc(Cl)cc4F)n3n2)n[nH]1 [gandotinib]
Method in brief: as §1

tozasertib = compound: Cc1cc(Nc2cc(N3CCN(C)CC3)nc(Sc3ccc(NC(=O)C4CC4)cc3)n2)n[nH]1 [tozasertib]
Method in brief: as §1

[4] = compound: Cc1cc(SCc2sc(-c3ccc(C(F)(F)F)cc3)nc2C)ccc1OCC(=O)O
Method in brief: as §1

doramapimod = compound: Cc1ccc(-n2nc(C(C)(C)C)cc2NC(=O)Nc2ccc(OCCN3CCOCC3)c3ccccc23)cc1 [doramapimod]
Method in brief: as §1

ispinesib = compound: Cc1ccc(C(=O)N(CCCN)[C@@H](c2nc3cc(Cl)ccc3c(=O)n2Cc2ccccc2)C(C)C)cc1 [ispinesib]
Method in brief: as §1

bafetinib = compound: Cc1ccc(NC(=O)c2ccc(CN3CC[C@H](N(C)C)C3)c(C(F)(F)F)c2)cc1Nc1nccc(-c2cncnc2)n1 [bafetinib]
Method in brief: as §1

[5] = compound: Cc1cccc(CC(=O)N2CCc3c2ccc(-c2cn(C)c4ncnc(N)c24)c3F)n1
Method in brief: as §1

dasatinib = compound: Cc1nc(Nc2ncc(C(=O)Nc3c(C)cccc3Cl)s2)cc(N2CCN(CCO)CC2)n1 [dasatinib]
Method in brief: as §1

[6] = compound: Cn1cc(-c2ccc3c(c2)CCN3C(=O)Cc2cccc(C(F)(F)F)c2)c2c(N)ncnc21
Method in brief: as §1

[7] = compound: Cn1cc(-c2ccc3nnc(C(F)(F)c4ccc5ncccc5c4)n3n2)cn1
Method in brief: as §1

tipifarnib = compound: Cn1cncc1[C@@](N)(c1ccc(Cl)cc1)c1ccc2c(c1)c(-c1cccc(Cl)c1)cc(=O)n2C [tipifarnib]
Method in brief: as §1

mubritinib = compound: FC(F)(F)c1ccc(/C=C/c2nc(COc3ccc(CCCCn4ccnn4)cc3)co2)cc1 [mubritinib]
Method in brief: as §1

nilotinib = compound: Cc1cn(-c2cc(NC(=O)c3ccc(C)c(Nc4nccc(-c5cccnc5)n4)c3)cc(C(F)(F)F)c2)cn1 [nilotinib]
Method in brief: as §1

[8] = compound: Cc1nc(Nc2n[nH]c3c2CN(C(=O)N[C@H](CN(C)C)c2ccccc2)C3(C)C)c2sccc2n1
Method in brief: as §1

[9] = compound: Cc1ncc(-c2ccnc(Nc3ccc(S(C)(=O)=O)cc3)n2)n1C(C)C
Method in brief: as §1

Measured: log2 fold change

GALNT12 (UniProt Q8IXK2)
inactive: [1] -0.052 | crizotinib -0.089 | [2] 0.015 | [3] 0.035 | duvelisib -0.024 | gandotinib 0.047 | tozasertib 0.023 | [4] 0.21 | doramapimod 0.008 | ispinesib -0.028 | bafetinib 0.009 | [5] 0.022 | dasatinib -0.182 | [6] -0.072 | [7] -0.021 | tipifarnib -0.009 | mubritinib -0.124

FTH1 (UniProt P02794)
inactive: [1] -0.04 | crizotinib -0.091 | [2] -0.113 | [3] 0.104 | duvelisib -0.024 | gandotinib 0.022 | tozasertib 0.029 | [4] 0.051 | doramapimod 0.032 | ispinesib -0.077 | bafetinib -0.089 | [5] 0.015 | nilotinib 0.097 | [8] -0.007 | dasatinib -0.094 | [9] -0.045 | [6] 0.024 | [7] 0.002 | tipifarnib 0.037 | mubritinib 0.02

GALT (UniProt P07902)
inactive: [1] 0.016 | crizotinib 0.071 | [2] -0.092 | [3] -0.069 | duvelisib -0.034 | gandotinib -0.059 | tozasertib 0.019 | [4] 0.011 | doramapimod -0.043 | ispinesib 0.02 | bafetinib 0.003 | [5] 0.084 | nilotinib -0.057 | [8] -0.109 | dasatinib 0.044 | [9] -0.03 | [6] -0.038 | [7] -0.03 | tipifarnib -0.064 | mubritinib -0.056

GCHFR (UniProt P30047)
inactive: [1] 0.079 | crizotinib -0.003 | [2] 0.047 | [3] 0.032 | duvelisib 0.21 | gandotinib -0.215 | tozasertib -0.245 | [4] -0.064 | doramapimod -0.021 | ispinesib 0.058 | bafetinib -0.113 | [5] -0.101 | nilotinib -0.008 | [8] 0.054 | dasatinib 0.05 | [9] -0.111 | [6] 0.226 | [7] -0.142 | tipifarnib -0.005 | mubritinib 0.048

G3BP2 (UniProt Q9UN86)
inactive: [1] -0.104 | crizotinib -0.049 | [2] -0.401 | [3] 0.23 | duvelisib -0.126 | gandotinib 0.172 | tozasertib 0.053 | [4] -0.006 | doramapimod 0.163 | ispinesib -0.279 | bafetinib 0.214 | [5] -0.034 | nilotinib 0.031 | [8] 0.049 | dasatinib 0.036 | [9] 0.021 | [6] -0.3 | [7] -0.221 | tipifarnib 0.08 | mubritinib -0.09

GGA1 isoform 6 (UniProt Q9UJY5)
inactive: [1] -0.054 | crizotinib -0.002 | [2] -0.064 | [3] -0.052 | duvelisib 0.013 | gandotinib -0.132 | tozasertib -0.004 | [4] 0.055 | doramapimod -0.024 | ispinesib -0.016 | bafetinib -0.051 | [5] 0.026 | nilotinib -0.012 | [8] -0.017 | dasatinib 0.06 | [9] -0.01 | [6] 0.032 | [7] 0 | tipifarnib -0.094 | mubritinib 0.022

FTO (UniProt Q9C0B1)
inactive: [1] 0.052 | crizotinib -0.005 | [2] 0.069 | [3] -0.004 | duvelisib 0.024 | gandotinib 0.089 | tozasertib -0.034 | [4] 0.02 | doramapimod 0.017 | ispinesib 0.072 | bafetinib -0.02 | [5] -0.032 | nilotinib 0.051 | [8] 0.034 | dasatinib -0.001 | [9] -0.039 | [6] -0.005 | [7] 0.006 | tipifarnib -0.002 | mubritinib 0.082

FUS (UniProt P35637)
inactive: [1] -0.093 | crizotinib -0.001 | [2] -0.128 | [3] 0.112 | duvelisib -0.039 | gandotinib 0.057 | tozasertib -0.033 | [4] -0.019 | doramapimod 0.01 | ispinesib -0.024 | bafetinib 0.047 | [5] -0.093 | nilotinib 0.014 | [8] 0.066 | dasatinib 0.11 | [9] 0.034 | [6] -0.113 | [7] -0.01 | tipifarnib 0.169 | mubritinib -0.086

GALK2 (UniProt Q01415)
inactive: [1] 0.02 | crizotinib 0.021 | [2] 0.055 | [3] -0.03 | duvelisib 0.065 | gandotinib -0.004 | tozasertib -0.017 | [4] 0.012 | doramapimod -0.002 | ispinesib 0.073 | bafetinib -0.034 | [5] 0 | nilotinib 0.039 | [8] -0.005 | dasatinib 0.013 | [9] -0.024 | [6] 0.004 | [7] 0.01 | tipifarnib -0.041 | mubritinib 0.02

GGH (UniProt Q92820)
inactive: [1] 0.01 | crizotinib -0.019 | [2] -0.021 | [3] -0.023 | duvelisib -0.007 | gandotinib 0.02 | tozasertib 0.01 | [4] -0.013 | doramapimod 0.006 | ispinesib 0 | bafetinib -0.066 | [5] -0.027 | nilotinib 0.021 | [8] 0.029 | dasatinib 0.021 | [9] -0.035 | [6] -0.022 | [7] 0.009 | tipifarnib 0.062 | mubritinib 0.039

Looked up one by one from above, 2 records:
FTH1 (UniProt P02794)
inactive: [1] -0.04 | crizotinib -0.091 | [2] -0.113 | [3] 0.104 | duvelisib -0.024 | gandotinib 0.022 | tozasertib 0.029 | [4] 0.051 | doramapimod 0.032 | ispinesib -0.077 | bafetinib -0.089 | [5] 0.015 | nilotinib 0.097 | [8] -0.007 | dasatinib -0.094 | [9] -0.045 | [6] 0.024 | [7] 0.002 | tipifarnib 0.037 | mubritinib 0.02

GALNT12 (UniProt Q8IXK2)
inactive: [1] -0.052 | crizotinib -0.089 | [2] 0.015 | [3] 0.035 | duvelisib -0.024 | gandotinib 0.047 | tozasertib 0.023 | [4] 0.21 | doramapimod 0.008 | ispinesib -0.028 | bafetinib 0.009 | [5] 0.022 | dasatinib -0.182 | [6] -0.072 | [7] -0.021 | tipifarnib -0.009 | mubritinib -0.124

Next results follow.

GALNT7 (UniProt Q86SF2)
inactive: [1] 0.044 | crizotinib 0.026 | [2] 0.017 | [3] -0.049 | duvelisib 0.021 | gandotinib -0.02 | tozasertib 0.004 | [4] 0.004 | doramapimod -0.033 | ispinesib 0.031 | bafetinib -0.041 | [5] 0.043 | nilotinib 0.001 | [8] -0.03 | dasatinib -0.084 | [9] 0.017 | [6] 0.034 | [7] -0.007 | tipifarnib -0.032 | mubritinib 0.045

GALM (UniProt Q96C23)
inactive: [1] 0.037 | crizotinib -0.042 | [2] 0.114 | [3] -0.022 | duvelisib 0.001 | gandotinib -0.057 | tozasertib -0.038 | [4] -0.016 | doramapimod -0.017 | ispinesib 0 | bafetinib -0.065 | [5] 0.077 | nilotinib -0.011 | [8] -0.001 | dasatinib 0.004 | [9] -0.009 | [6] 0.093 | [7] 0.021 | tipifarnib 0.006 | mubritinib 0.007

GHITM (UniProt Q9H3K2)
inactive: [1] -0.006 | crizotinib -0.022 | [2] 0.034 | [3] -0.083 | duvelisib -0.002 | gandotinib -0.097 | tozasertib -0.012 | [4] -0.006 | doramapimod -0.011 | ispinesib -0.06 | bafetinib -0.055 | [5] 0.015 | nilotinib 0.01 | [8] 0.023 | dasatinib 0.024 | [9] 0.002 | [6] 0.006 | [7] 0.019 | tipifarnib -0.068 | mubritinib 0.07

GFM1 (UniProt Q96RP9)
inactive: [1] 0.055 | crizotinib -0.068 | [2] 0.117 | [3] -0.017 | duvelisib 0.047 | gandotinib -0.075 | tozasertib -0.005 | [4] 0.06 | doramapimod -0.069 | ispinesib -0.074 | bafetinib 0.023 | [5] -0.001 | nilotinib 0.01 | [8] -0.047 | dasatinib -0.165 | [9] -0.06 | [6] 0.109 | [7] 0.063 | tipifarnib -0.065 | mubritinib -0.085

GAPDH (UniProt P04406)
inactive: [1] -0.013 | crizotinib 0.046 | [2] 0.027 | [3] -0.156 | duvelisib -0.003 | gandotinib 0.053 | tozasertib 0.016 | [4] -0.012 | doramapimod -0.084 | ispinesib 0.12 | bafetinib 0.012 | [5] 0.028 | nilotinib 0.069 | [8] -0.01 | dasatinib -0.002 | [9] 0.006 | [6] 0.068 | [7] 0.011 | tipifarnib -0.031 | mubritinib 0.02

GCLC (UniProt P48506)
inactive: [1] 0.047 | crizotinib -0.015 | [2] 0.102 | [3] 0.013 | duvelisib 0.041 | gandotinib -0.014 | tozasertib -0.033 | [4] -0.003 | doramapimod -0.015 | ispinesib -0.022 | bafetinib -0.033 | [5] -0.035 | nilotinib -0.015 | [8] -0.013 | dasatinib -0.051 | [9] 0.003 | [6] -0.002 | [7] 0.032 | tipifarnib -0.018 | mubritinib 0.055
